Data reported in the supplement of paper PMC11637464.
Some of the results follow. Single values are uncertain, as repeats are few or missing.

Test system: primary mouse Muller glia with Ascl1 overexpression
Experiment: total cells recovered per well; higher = more cells recovered
Description: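 Primary P11 mouse Muller glia carrying dox-inducible Ascl1 were treated with Tocriscreen Stem Cell Library compounds at 0.1, 1 or 10 uM together with doxycycline for 5 days, then profiled by sci-Plex hashing and sci-RNA-seq2. Cells were annotated by marker genes and cell-type counts per well were size-factor adjusted. Read-outs are the log2 fold change of Neuronal (NeuPre + bipolar) and ProL cell counts versus the Ascl1-only control wells of the same collection day, plus the raw number of recovered cells per well. There is one well per dose, and wells with fewer than 20 cells were discarded.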

SMILES	total cells recovered per well (0.1 µM)	total cells recovered per well (10 µM)	total cells recovered per well (1 µM)
CN(C)c1ccccc1CN1CCCN(Cc2ccccc2N(C)C)C1c1ccncc1 (collection day: 1)	72	50	–
Cc1cccc(-c2[nH]ncc2-c2ccc3ncccc3n2)n1 (collection day: 2)	47	48	80
COc1cccc(-c2cc(=O)c3ccccc3o2)c1N (collection day: 1)	68	43	57
O=C(NNc1ccccc1)c1ccncc1 [PluriSln 1] (collection day: 2)	69	78	106
CC1=C(C(=O)Nc2cc3cn[nH]c3cc2F)C(c2ccc(C(F)(F)F)cc2)CC(=O)N1 (stereo unspecified) (collection day: 2)	68	66	81
CCN(CC)CCCCNc1ncc2cc(-c3cc(OC)cc(OC)c3)c(NC(=O)NC(C)(C)C)nc2n1 (collection day: 1)	101	–	57
C[S+]([O-])c1ccc(-c2nc(-c3ccc(F)cc3)c(-c3ccncc3)[nH]2)cc1 (stereo unspecified) (collection day: 1)	55	46	64
C=CCNc1ncnc2ccc(Br)cc12 (collection day: 2)	67	86	84
Cc1ccccc1N=Nc1ccc(NC(=O)c2ccnn2C)c(C)c1 (collection day: 2)	85	–	78
Oc1nc(-c2ccc(C(F)(F)F)cc2)nc2c1CSCC2 (collection day: 2)	91	85	93
O=C(O)C(Cc1c[nH]c2ccccc12)N1C(=O)c2ccccc2C1=O (stereo unspecified) (collection day: 2)	52	70	50
NC(=O)c1cccnc1 [Nicotinamide] (collection day: 2)	112	132	153
Cc1ccccc1NC(=O)Nc1ccc(CC(=O)N(C)[C@@H](CC(C)C)C(=O)NCC[C@H](NC(=O)[C@@H]2CCCN2S(=O)(=O)c2cc(Cl)cc(Cl)c2)C(=O)O)cc1 (collection day: 2)	109	81	115
O=C(O)CCCc1ccccc1 [Sodium 4-Phenylbutyrate] (collection day: 1)	124	86	108
CC(C)N(CCCNC(=O)Nc1ccc(C(C)(C)C)cc1)C[C@H]1O[C@@H](n2ccc3c(N)ncnc32)[C@H](O)[C@@H]1O (collection day: 2)	–	62	72

4 structures out of the list, sorted by count of non-hydrogen atoms, ascending.
SMILES	total cells recovered per well (0.1 µM)	total cells recovered per well (10 µM)	total cells recovered per well (1 µM)
O=C(NNc1ccccc1)c1ccncc1 [PluriSln 1] (collection day: 2)	69	78	106
Oc1nc(-c2ccc(C(F)(F)F)cc2)nc2c1CSCC2 (collection day: 2)	91	85	93
Cc1cccc(-c2[nH]ncc2-c2ccc3ncccc3n2)n1 (collection day: 2)	47	48	80
O=C(O)C(Cc1c[nH]c2ccccc12)N1C(=O)c2ccccc2C1=O (stereo unspecified) (collection day: 2)	52	70	50
